In patent US20040033213A1, “Methods of modulating dendritic cells using adjuvants” (Corixa Corporation, priority 2002, published 2004):
Some results were stated once for a whole list of compounds, not compound by compound.

Test system: murine bone marrow derived DCs + D011.10 T cells
Test: APC function of ova-pulsed, lipid A potentiated murine DCs co-cultured with D011.10 T cells (cytokine ELISA)
Type: cell-based
Excerpt: These antigen pulsed, lipid A potentiated cells were then washed thoroughly and titered against ova-specific T cell effector cells in vitro at an APC: T cell ratio titration of 1:1 out to as high as 1:512. The effector T cells in this in vitro assay were the antigen naive, but antigen (ova) specific, MHC restricted I-A^d splenic T cells from transgenic D011.10 mice.
D011.10 TCR-transgenic mice were used in these experiments as donors of antigen specific naive T cells. In their germline DNA these mice contain rearranged TCR-Vα and -Vβ genes that encode a T cell receptor (TCR) specific for the ovalbumin peptide 323-339 bound to IA^d (Balb/c) Class II MHC molecules. The transgenic ova peptide specific TCR can be detected with the KJ1-26 monoclonal antibody (mAb) that binds only to this particular TCR heterodimer. These cells provide a ready source of “normal” antigen (ova)-specific effector T cells. Effective antigen-mediated APC stimulation of those T cells is generally measured by ELISA quantitation of IL-2 or IFN-γ in the culture supernatants of DC+D011.10 T cells after 24-48 hours of incubation.
In one experiment, murine bone marrow derived DCs (6 day cultures) were pulsed with ova (50 μg/ml-5×10^5 cells/ml) and then potentiated overnight with LPS(R595), MPL® immunostimulant-S, RC-527, RC-529 or RC-544 prior to being cultured together with naive D011.10 effector T cells (FIGS. 1-7). […]

SMILES	DC-mediated IL-12 (p70) secretion response, times greater than ova only treated DCs (T cell:APC ratio 16:1, FIG. 6)	IFN-γ secretion, fold greater than DCs pulsed with ova only (T cell:APC ratio 32:1, FIG. 4)
CCCCCCCCCCCC(CC(=O)NC(COC1OC(CO)C(OP(=O)(O)O)C(OC(=O)CC(CCCCCCCCCCC)OC(=O)CCCCCCCCC)C1NC(=O)CC(CCCCCCCCCCC)OC(=O)CCCCCCCCC)C(=O)O)OC(=O)CCCCCCCCC (centres unmarked) [RC-527]	12-14 times	
CCCCCCCCCCCCCC(=O)O[C@H](CCCCCCCCCCC)CC(=O)NCCO[C@@H]1O[C@H](CO)[C@@H](OP(=O)(O)O)[C@H](OC(=O)C[C@@H](CCCCCCCCCCC)OC(=O)CCCCCCCCCCCCC)[C@H]1NC(=O)C[C@@H](CCCCCCCCCCC)OC(=O)CCCCCCCCCCCCC.CCN(CC)CC [RC-529, 2-[(R)-3-Tetradecanoyloxytetradecanoylamino]ethyl 2-Deoxy-4-O-phosphono-3-O-[(R)-3-tetradecanoyoxytetradecanoyl]-2-[(R)-3-tetradecanoyoxytetradecanoylamino]-β-D-glucopyranoside triethylammonium salt]		7-8 fold
